Drawing on article PMC12462528, “Molecular basis of ParA ATPase activation by the CTPase ParB during bacterial chromosome segregation” (Nature Communications, 2025), this text covers binding for 4 molecules.

In experiment [1] the target is T1, ParA-D60A (Myxococcus xanthus DK1622) (UniProt Q1CVJ3).
T1 sequence: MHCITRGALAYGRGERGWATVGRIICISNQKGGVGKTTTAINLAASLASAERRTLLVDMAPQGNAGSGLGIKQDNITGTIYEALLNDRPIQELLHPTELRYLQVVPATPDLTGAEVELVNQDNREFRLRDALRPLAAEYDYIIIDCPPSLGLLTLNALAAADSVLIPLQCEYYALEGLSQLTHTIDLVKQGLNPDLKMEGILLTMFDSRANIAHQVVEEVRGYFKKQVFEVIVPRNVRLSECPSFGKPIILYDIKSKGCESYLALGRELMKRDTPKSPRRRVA
The experiment is described as follows: HDX-MS; 50 µM ParA or ParA-D60A with 1 mM ATP, with or without 1 mM ParB_(1-20) and/or 1 mg/mL salmon sperm DNA; 25 °C (Datasets 1 and 2); both purified.

Experiment [2] has as its target T1, ParA-D60A (Myxococcus xanthus DK1622). The experiment is described as follows: HDX-MS; 50 µM ParA-D60A with 1 mM ATP and 1 mM CTP, with or without 100 µM ParB-Q52A pre-closed with 2.5 µM parS stem-loop and/or 1 mg/mL salmon sperm DNA; 25 °C (Dataset 3); both purified.
The next experiment concerns the target T2, ParB-Q52A (Myxococcus xanthus DK1622, UniProt Q1CVJ4 1-296, Q52A).
T2 construct: ParB of Myxococcus xanthus DK1622, variant lacking CTPase activity; Closed clamps formed with CTP and parS DNA; also called CTP hydrolysis-deficient ParB variant; source: E. coli Rosetta(DE3)pLysS, purified (as wild-type ParB)
T2 sequence (looked up): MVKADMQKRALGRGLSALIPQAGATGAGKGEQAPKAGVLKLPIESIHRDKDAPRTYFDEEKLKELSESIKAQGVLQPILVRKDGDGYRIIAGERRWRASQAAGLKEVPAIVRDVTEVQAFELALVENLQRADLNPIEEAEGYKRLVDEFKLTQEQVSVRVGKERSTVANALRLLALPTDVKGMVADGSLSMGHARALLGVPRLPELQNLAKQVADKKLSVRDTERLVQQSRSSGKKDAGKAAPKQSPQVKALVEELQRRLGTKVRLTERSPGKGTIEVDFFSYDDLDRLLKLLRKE
Nature of the experiment: BLI; ParB-Q52A (10 µM) loaded on closed parS DNA on the biosensor; ParA variants (5 µM) in solution with ATP (1 mM) and 500 mM KCl; both purified. For orientation: Biolayer interferometry detects binding as a change in optical thickness at a sensor tip.

For experiment [3], the target named is T3, ParBΔ21 (Myxococcus xanthus DK1622) (UniProt Q1CVJ4).
T3 sequence: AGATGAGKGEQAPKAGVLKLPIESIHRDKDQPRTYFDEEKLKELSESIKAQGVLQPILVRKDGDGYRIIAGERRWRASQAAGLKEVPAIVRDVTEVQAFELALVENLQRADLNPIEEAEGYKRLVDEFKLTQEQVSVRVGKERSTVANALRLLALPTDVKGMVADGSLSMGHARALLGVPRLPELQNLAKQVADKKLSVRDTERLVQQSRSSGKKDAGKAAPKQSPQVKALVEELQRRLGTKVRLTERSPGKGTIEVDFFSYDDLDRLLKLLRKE
Nature of the experiment: BLI; double-biotinylated 234-bp parS DNA on streptavidin biosensor, loaded with ParB or its derivatives (10 µM) and 1 mM CTPγS; ParA-R238E variants in solution with 1 mM ATP; 25 mM HEPES/KOH pH 7.6, 100 mM KCl, 10 mM MgSO4, 1 mM DTT; apparent KD; both purified.

These are yes or no findings as the source states them, for the method shown. Some results given as binding are weak or reduced against the parent protein; the word gives no strength.

B1: ParB_(1-20) peptide (peptide, UniProt Q1CVJ4 1-20, looked up)
peptide: MVKADMQKRALGRGLSALIP
notes: also called N-terminal peptide of ParB; source: synthetic peptide
Turning to B1, the binding entry in experiment [1] is “binds weakly”.

B2: ParB-Q52A (protein, UniProt Q1CVJ4 1-296)
chain: MVKADMQKRALGRGLSALIPQAGATGAGKGEQAPKAGVLKLPIESIHRDKDAPRTYFDEEKLKELSESIKAQGVLQPILVRKDGDGYRIIAGERRWRASQAAGLKEVPAIVRDVTEVQAFELALVENLQRADLNPIEEAEGYKRLVDEFKLTQEQVSVRVGKERSTVANALRLLALPTDVKGMVADGSLSMGHARALLGVPRLPELQNLAKQVADKKLSVRDTERLVQQSRSSGKKDAGKAAPKQSPQVKALVEELQRRLGTKVRLTERSPGKGTIEVDFFSYDDLDRLLKLLRKE
Take B2: the binding result in experiment [2] was “binds weakly”.

B3: ParA-E82R (protein, UniProt Q1CVJ3 1-283)
chain: MHCITRGALAYGRGERGWATVGRIICISNQKGGVGKTTTAINLAASLASAERRTLLVDMDPQGNAGSGLGIKQDNITGTIYRALLNDRPIQELLHPTELRYLQVVPATPDLTGAEVELVNQDNREFRLRDALRPLAAEYDYIIIDCPPSLGLLTLNALAAADSVLIPLQCEYYALEGLSQLTHTIDLVKQGLNPDLKMEGILLTMFDSRANIAHQVVEEVRGYFKKQVFEVIVPRNVRLSECPSFGKPIILYDIKSKGCESYLALGRELMKRDTPKSPRRRVA
Consider B3, for which the binding result in the experiment with ParB-Q52A is reported as “binds”.

B4: ParA-R238E (natural protein, Myxococcus xanthus DK1622, UniProt Q1CVJ3 1-283, looked up)
chain: MHCITRGALAYGRGERGWATVGRIICISNQKGGVGKTTTAINLAASLASAERRTLLVDMDPQGNAGSGLGIKQDNITGTIYEALLNDRPIQELLHPTELRYLQVVPATPDLTGAEVELVNQDNREFRLRDALRPLAAEYDYIIIDCPPSLGLLTLNALAAADSVLIPLQCEYYALEGLSQLTHTIDLVKQGLNPDLKMEGILLTMFDSRANIAHQVVEEVRGYFKKQVFEVIVPRNVELSECPSFGKPIILYDIKSKGCESYLALGRELMKRDTPKSPRRRVA
notes: ParA of Myxococcus xanthus DK1622, translation product of ORF MXAN_7477; Purified as His6-ParA; no tag cleavage step is described; also called His6-ParA-R238E; source: E. coli Rosetta(DE3)pLysS, purified (HisTrap HP, HiTrap Q HP)
As for B4, in experiment [3], the binding entry is reported as “no binding (tested: 10 µM)”.
